From PubChem BioAssay AID330 (DTP/NCI, 2004) come the findings set out here.

The list does not hold the whole screen: it gathers tests that were run many times, whatever their T/C, doses with no T/C, and many T/C values between a quarter and a half above the control. Further doses and runs are listed elsewhere. T/C is the treated group as % of the vehicle group. Some entries give survivors of the animals treated and no T/C: the source files T/C as zero there, which appears to mark a toxic dose or a test without result, not a measured value. Some survivor counts are full or nearly so, which does not show that the dose was tolerated: survival well below the control is almost never listed, so the zero probably covers shortened survival too. Counts of survivors are from the toxicity check (mostly the fifth day) where no day follows; animals may have died later. Schedule codes are those of the source, read here as Q, the interval in days (D) or hours (H), X, the number of doses. Some doses were run more than once; the values are given in rising order. Counts like (3×) say how often a value occurs here. For survival time, the PubChem record calls one and a half times the control and up active, and a quarter to a half above the control has no call in these data; cut-offs in other NCI protocols can differ. Some T/C values carry the count of animals alive at the toxicity check (mostly the fifth day); where none is given, no animal had died by that day.

For this assay, the system named is P388 leukemia ip, CD2F1 mice, survival T/C. In words: NCI In Vivo Anticancer Drug Screen. Data for tumor model P388 Leukemia (intraperitoneal) in CD2F1 (CDF1) mice. Particulars: T/C endpoint: median survival time, higher T/C = longer survival.
[1] abbreviates: dose: 400.0 mg/kg/injection, schedule: Q01DX009 (ip), vehicle: saline.
Where [2] appears, read: dose: 240.0 mg/kg/injection, schedule: Q01DX005 (ip), vehicle: saline with Tween-80.
[3] abbreviates: dose: 200.0 mg/kg/injection, schedule: Q01DX009 (ip), vehicle: saline.
Where [4] appears, read: dose: 400.0 mg/kg/injection, schedule: Q04DX003 (ip), vehicle: saline with Tween-80.
[5] abbreviates: dose: 120.0 mg/kg/injection, schedule: Q01DX005 (ip), vehicle: Klucel (hydroxypropylcellulose) (HPC).
[6] abbreviates: dose: 240.0 mg/kg/injection, schedule: Q01DX005 (ip), vehicle: Klucel (hydroxypropylcellulose) (HPC).
[7] abbreviates: dose: 200.0 mg/kg/injection, schedule: Q01DX005 (ip), vehicle: Klucel (hydroxypropylcellulose) (HPC).
Setting [8] is: dose: 200.0 mg/kg/injection, schedule: Q01DX005 (ip), vehicle: saline with Tween-80.
The mark [9] stands for this setting: dose: 50.0 mg/kg/injection, schedule: Q01DX005 (ip), vehicle: Klucel (hydroxypropylcellulose) (HPC).

On to `CN(C)Cc1ncccc1O`, for which the survivor count is 3 of 6 under setting [1] and 0 of 6 (dose: 600.0 mg/kg/injection, schedule: Q01DX009 (ip), vehicle: saline).
Regarding `COc1cc(C(CC(C)=O)c2cc3c(cc2OC(C)=O)OCO3)cc(OC)c1OC` (centres undefined), under “dose: 120.0 mg/kg/injection, schedule: Q01DX005 (ip), vehicle: saline with Tween-80”, the T/C was 135 % of control. The survivor count under setting [2] was 1 of 6 and 6 of 6.
For the compound `COC1C(C(=O)CS(=O)Cc2ccccc2)OC2OC(C)(C)OC21` (centres undefined), where the note is “dose: 120.0 mg/kg/injection, schedule: Q01DX005 (ip), vehicle: saline”, the survivor count is recorded as 5 of 6.
Consider `N=C(N)Sc1ccccn1`, for which the T/C reads like this: (dose: 100.0 mg/kg/injection, schedule: Q01DX009 (ip), vehicle: saline) 145 % of control; under setting [1], 128 % of control. The survivor count under setting [3] is 2 of 6 and the survivor count under setting [1] was 0 of 6.
`Cc1cccc(C)c1NC(=S)N1CCC(CCCC2CCN(C(=S)Nc3c(C)cccc3C)CC2)CC1`: under setting [4], the survivor count is 6 of 6.
With `O=[n+]1ccn([O-])c2ccccc21.[O-][Cl+3]([O-])([O-])O.[Zn+2]`, the survivor count by setting is: (dose: 200.0 mg/kg/injection, schedule: Q04DX003 (ip), vehicle: saline with Tween-80) 0 of 6; under setting [4], 0 of 6.
On to `Cc1cc(Nc2ccc(N(CCCl)CCCl)cc2)c(C)cc1O`, for which the T/C (dose: 100.0 mg/kg/injection, schedule: Q04DX003 (ip), vehicle: Klucel (hydroxypropylcellulose) (HPC)) is 137 % of control [5 of 6 alive]. In addition, where the note is “dose: 400.0 mg/kg/injection, schedule: Q04DX003 (ip), vehicle: Klucel (hydroxypropylcellulose) (HPC)”, the survivor count is reported as 4 of 6.
Take `C=CCOc1ccccc1/C(CC)=N/N(C)C`: the survivor count under setting [3] is reported as 1 of 6.
With `CS(=O)(=O)OCCN(CCOS(C)(=O)=O)c1ccc(N=Nc2ccccc2C(=O)O)cc1`, under “dose: 0.39 mg/kg/injection, schedule: Q01DX009 (ip), vehicle: Klucel (hydroxypropylcellulose) (HPC)”, the T/C is 126 % of control. In addition, the survivor count reads like this: (dose: 12.5 mg/kg/injection, schedule: Q01DX009 (ip), vehicle: Klucel (hydroxypropylcellulose) (HPC)) 6 of 6; (dose: 25.0 mg/kg/injection, schedule: Q01DX009 (ip), vehicle: Klucel (hydroxypropylcellulose) (HPC)) 6 of 6.
As for `Cc1[nH]c2ccc(N(C)C)cc2c(=O)c1CN(Cc1ccccc1)Cc1c(C)[nH]c2ccc(N(C)C)cc2c1=O`, the survivor count is 6 of 6 (dose: 60.0 mg/kg/injection, schedule: Q01DX005 (ip), vehicle: Klucel (hydroxypropylcellulose) (HPC)); 6 of 6 under setting [5]; 6 of 6 under setting [6].
As to `CC(C)N(CCn1cnc2c(N)ncnc21)C(C)C`, the survivor count under setting [7] is reported as 0 of 6.
As for `CCN=c1cc2oc3cc(NCC)c(C)cc3c(-c3ccccc3C(=O)OCC)c-2cc1C`, the survivor count runs as follows: (dose: 3.12 mg/kg/injection, schedule: Q01DX005 (ip), vehicle: saline with Tween-80) 3 of 5; (dose: 6.25 mg/kg/injection, schedule: Q01DX005 (ip), vehicle: saline with Tween-80) 1 of 5; (dose: 12.5 mg/kg/injection, schedule: Q01DX005 (ip), vehicle: saline with Tween-80) 0 of 5; (dose: 50.0 mg/kg/injection, schedule: Q01DX005 (ip), vehicle: saline with Tween-80) 0 of 5; (dose: 100.0 mg/kg/injection, schedule: Q01DX005 (ip), vehicle: saline with Tween-80) 0 of 5; under setting [8], 0 of 5.
In the case of `C=CC12CN(C)C3C4COC(CC41)C1(C(=O)Nc4ccccc41)C32` (centres undefined), the survivor count reads like this: under setting [5], 0 of 6; under setting [6], 0 of 5.
For the compound `COc1ccc2ccc3c(c2c1)C(=O)C(CC(N)=O)C3` (centres undefined), the survivor count (dose: 100.0 mg/kg/injection, schedule: Q01DX009 (ip), vehicle: distilled water + Tween-80) is 6 of 6.
For `COc1ccc(S(=O)(=O)N/N=C/c2ncc[nH]2)cc1`, under setting [8], the survivor count was 0 of 6.
`C=C1N=NN(c2cccc(C(F)(F)F)c2)C1N1CCOCC1` (centres undefined): the survivor count under setting [2] is on record as 3 of 6.
As for `COc1cc([N+](=O)[O-])c2nc(Cl)ccc2c1[N+](=O)[O-]`, the survivor count by setting is: (dose: 12.5 mg/kg/injection, schedule: Q01DX009 (ip), vehicle: other) 6 of 6; (dose: 25.0 mg/kg/injection, schedule: Q01DX009 (ip), vehicle: other) 6 of 6; (dose: 100.0 mg/kg/injection, schedule: Q01DX009 (ip), vehicle: other) 6 of 6; (dose: 200.0 mg/kg/injection, schedule: Q01DX009 (ip), vehicle: other) 6 of 6.
In the case of `O=C1CSC(=Nc2ccccc2)N1c1ccc(-n2c(-c3ccc(N=Cc4ccc(Cl)cc4)cc3)nc3ccccc3c2=O)cc1`, the survivor count under setting [5] was 6 of 6 and the survivor count under setting [6] is 6 of 6.
Turning to `COc1cc2c(cc1OC)[C@@H]1C(=O)c3ccc4c(c3O[C@@H]1CO2)C[C@H](C(C)C)O4`, the T/C was 127 and 137 % of control (dose: 25.0 mg/kg/injection, schedule: Q01DX005 (ip), vehicle: Klucel (hydroxypropylcellulose) (HPC)); 126 [4 of 6 alive] and 130 % of control [5 of 6 alive] under setting [9]. Also, the survivor count was 0 of 6 under setting [9]; 0 of 6 (2×) and 6 of 6 (dose: 100.0 mg/kg/injection, schedule: Q01DX005 (ip), vehicle: Klucel (hydroxypropylcellulose) (HPC)); 0 of 6 (2×) under setting [7].
For `c1ccc(CN2COC3CCCCC32)cc1` (centres undefined), where the note is “dose: 200.0 mg/kg/injection, schedule: Q01DX005 (ip), vehicle: saline”, the T/C was 148 % of control.
Take `CSCCC(NC(=O)CN(C)C(=O)OCc1ccccc1)C(=O)O` (centres undefined): the survivor count under setting [8] is on record as 0 of 6.
Regarding `CNC(=O)OCc1c(COC(=O)NC)c(C)n(-c2ccc(Br)cc2)c1C`, the T/C (dose: 25.0 mg/kg/injection, schedule: Q01DX009 (ip), vehicle: saline) is 142 % of control. Further, the survivor count (dose: 50.0 mg/kg/injection, schedule: Q01DX009 (ip), vehicle: saline) is 5 of 6.
As for `CC(C)C[N+]1(Cc2ccc(Cl)cc2Cl)CCOCC1`, the survivor count (dose: 400.0 mg/kg/injection, schedule: Q04DX003 (ip), vehicle: saline) is 1 of 6.
